Data taken from patent US20240391800A1, “HYPERSALINE DESALINATION USING IONIC LIQUIDS AND LOW-TEMPERATURE HEAT” (UNIVERSITY OF NOTRE DAME DU LAC, priority 2021, published 2024).

Test: Directional solvent extraction (DSE) desalination cycle, moderate / seawater-salinity NaCl feed
Details: for Na+ residual in IL: ion residue in IL after DSE, measured by Na+ concentration; for H2O yield (%/° C.): seawater salinity feedwater; for water yield: Table 2, DSE screening of less compatible ILs

Compound | Na+ residual in IL [ppm] | H2O yield (%/° C.) | water yield | recovered Na+ concentration in product water (feeding saline with Na+ concentration 13700 ppm) [ppm]
CC[n+]1ccn(C)n1 [[1,2,3-emtriz][Tf2N], 1-ethyl-3-methyl-1,2,3-triazolium bistriflimide] | ~330 | 0.19 %/° C. |  | 
CCCCCCCC[P+](CCCC)(CCCC)CCCC [[P4448][Tf2N]] [Tributyloctylphosphonium bis(trifluoromethanesulfonyl)imide] |  |  | water yield (<0.005%/° C.) | 
CCCCCCCCCCCCCC[P+](CCCCCC)(CCCCCC)CCCCCC [[P66614][Tf2N], Trihexyltetradecylphosphonium bis(trifluoromethanesulfonyl)imide] |  |  | water yield (<0.012%/° C.) | 
COC[n+]1ccn(C)c1 [[mommim][Tf2N], 1-(methoxymethyl)-3-methyl-1H-imidazol-3-ium bis(trifluoromethylsulfonyl)imide] | ~520 | 0.24 %/° C. and 0.24%x %/° C. |  | 926

Where “and” joins values, the source holds several entries; their conditions need not be identical. Identical values can stand only once.
